# The supplement of paper PMC8728848
# The other results are listed elsewhere or left out.
# Tests used:
# Assay in all cases: glycan array binding signal (z-score within array); higher = stronger binding
# Settings in all cases: glycan notation: IUPAC condensed, linker removed
# [1] = target: Gal3S(b1-4)[Fuc(a1-3)]Glc
# How it was run: (§1)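 Glycan array data came from 3228 arrays in the Consortium for Functional Glycomics database, and only arrays with an available protein sequence were kept. Glycan names were put into IUPAC-condensed notation, and columns mapping to the same glycan were averaged. The binding signal is a within-array Z-score, averaged across arrays of one protein sequence run at different concentrations or buffers and across linkers. A negative Z-score can be read as non-binding.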
# [2] = target: Gal3S(b1-4)[Fuc(a1-3)]Glc6S
# How it was run: as §1
# Gal3S4S(b1-4)GlcNAc = target: Gal3S4S(b1-4)GlcNAc
# How it was run: as §1
# Gal3S6S(b1-4)GlcNAc = target: Gal3S6S(b1-4)GlcNAc
# How it was run: as §1
# Gal3S6S(b1-4)GlcNAc6S = target: Gal3S6S(b1-4)GlcNAc6S
# How it was run: as §1
# Gal4S(b1-4)GlcNAc = target: Gal4S(b1-4)GlcNAc
# How it was run: as §1
# Gal4S6S(b1-4)GlcNAc = target: Gal4S6S(b1-4)GlcNAc
# How it was run: as §1
# Gal6S(b1-4)Glc = target: Gal6S(b1-4)Glc
# How it was run: as §1
# Gal6S(b1-4)Glc6S = target: Gal6S(b1-4)Glc6S
# How it was run: as §1
# Gal6S(b1-4)GlcNAc = target: Gal6S(b1-4)GlcNAc
# How it was run: as §1
# Gal6S(b1-4)GlcNAc6S = target: Gal6S(b1-4)GlcNAc6S
# How it was run: as §1
# GalNAc(a1-3)Gal = target: GalNAc(a1-3)Gal
# How it was run: as §1
# GalNAc(a1-3)GalNAc = target: GalNAc(a1-3)GalNAc
# How it was run: as §1
# [3] = target: GalNAc(a1-3)GalNAc(a1-3)Gal(a1-4)Gal(b1-4)GlcNAc
# How it was run: as §1
# GalNAc(b1-3)Gal = target: GalNAc(b1-3)Gal
# How it was run: as §1
# [4] = target: GalNAc(b1-3)Gal(a1-4)Gal(b1-4)GlcNAc
# How it was run: as §1
# [5] = target: GalNAc(b1-3)Gal(a1-4)Gal(b1-4)GlcNAc(b1-3)Gal(b1-4)Glc
# How it was run: as §1
# [6] = target: GalNAc(b1-3)Gal(a1-6)Gal(b1-4)Glc
# How it was run: as §1
# GalNAc(b1-3)GalNAc = target: GalNAc(b1-3)GalNAc
# How it was run: as §1
# GalNAc(b1-4)GlcNAc = target: GalNAc(b1-4)GlcNAc
# How it was run: as §1
# [7] = target: GalNAc(b1-4)GlcNAc(b1-2)Man(a1-3)[GalNAc(b1-4)GlcNAc(b1-2)Man(a1-6)]Man(b1-4)GlcNAc(b1-4)GlcNAc
# How it was run: as §1
# Glc(a1-4)Glc = target: Glc(a1-4)Glc
# How it was run: as §1
# Glc(a1-6)Glc(a1-6)Glc = target: Glc(a1-6)Glc(a1-6)Glc
# How it was run: as §1
# Glc(b1-4)Glc = target: Glc(b1-4)Glc
# How it was run: as §1
# Glc(b1-6)Glc = target: Glc(b1-6)Glc
# How it was run: as §1
# GlcA(b1-3)Gal = target: GlcA(b1-3)Gal
# How it was run: as §1
# GlcA(b1-3)GlcNAc = target: GlcA(b1-3)GlcNAc
# How it was run: as §1
# GlcA(b1-6)Gal = target: GlcA(b1-6)Gal
# How it was run: as §1
# [8] = target: GlcNAc(a1-3)Gal(b1-4)GlcNAc
# How it was run: as §1
# [9] = target: GlcNAc(a1-4)Gal(b1-3)GlcNAc
# How it was run: as §1
# [10] = target: GlcNAc(a1-4)Gal(b1-4)GalNAc
# How it was run: as §1
# [11] = target: GlcNAc(a1-4)Gal(b1-4)GlcNAc
# How it was run: as §1
# [12] = target: GlcNAc(a1-4)Gal(b1-4)GlcNAc(b1-3)Gal(b1-4)Glc
# How it was run: as §1
# [13] = target: GlcNAc(a1-4)Gal(b1-4)GlcNAc(b1-3)Gal(b1-4)GlcNAc
# How it was run: as §1
# [14] = target: GlcNAc(a1-4)Gal(b1-4)GlcNAc(b1-3)Gal(b1-4)GlcNAc(b1-3)Gal(b1-4)GlcNAc
# How it was run: as §1
# [15] = target: GlcNAc(a1-4)Gal(b1-4)GlcNAc(b1-3)Gal(b1-4)[Fuc(a1-3)]GlcNAc(b1-3)Gal(b1-4)[Fuc(a1-3)]GlcNAc
# How it was run: as §1
# [16] = target: GlcNAc(a1-6)Gal(b1-4)GlcNAc
# How it was run: as §1
# [17] = target: GlcNAc(b1-2)Gal(b1-3)GalNAc
# How it was run: as §1
# [18] = target: GlcNAc(b1-2)Man(a1-3)[GlcNAc(b1-2)Man(a1-6)]Man(b1-4)GlcNAc(b1-4)GlcNAc
# How it was run: as §1
# [19] = target: GlcNAc(b1-2)Man(a1-3)[GlcNAc(b1-2)Man(a1-6)]Man(b1-4)GlcNAc(b1-4)[Fuc(a1-6)]GlcNAc
# How it was run: as §1
# [20] = target: GlcNAc(b1-2)[GlcNAc(b1-4)]Man(a1-3)[GlcNAc(b1-2)Man(a1-6)]Man(b1-4)GlcNAc(b1-4)GlcNAc
# How it was run: as §1
# GlcNAc(b1-3)Gal = target: GlcNAc(b1-3)Gal
# How it was run: as §1
# [21] = target: GlcNAc(b1-3)Gal(b1-3)GalNAc
# How it was run: as §1
# GlcNAc(b1-3)Gal(b1-4)Glc = target: GlcNAc(b1-3)Gal(b1-4)Glc
# How it was run: as §1
# [22] = target: GlcNAc(b1-3)Gal(b1-4)GlcNAc
# How it was run: as §1
binder,measurement,setting,value
"CREG (Mus musculus), O88668 (protein) MAARAPELARSLLAALLAPALVALLVSPASGRGGRDHGDWDVDRRLPPLPPREDGPRVARFVTHVSDWGSLATISTIKEVRGWPFADIISISDGPPGEGTGEPYMYLSPLQQAVSDLQENPEATLTMSLAQTVYCRNHGFDPQSPLCVHIMMSGTVTKVNKTEEDYARDSLFVRHPEMKHWPSSHNWFFAKLKISRIWVLDYFGGPKVVTPEEYFNVTLQ",glycan array binding signal (z-score),[1],1.16
same,glycan array binding signal (z-score),[2],-0.481
same,glycan array binding signal (z-score),Gal3S4S(b1-4)GlcNAc,-1.12
same,glycan array binding signal (z-score),Gal3S6S(b1-4)GlcNAc,1.52
same,glycan array binding signal (z-score),Gal3S6S(b1-4)GlcNAc6S,2.03
same,glycan array binding signal (z-score),Gal4S(b1-4)GlcNAc,-0.336
same,glycan array binding signal (z-score),Gal4S6S(b1-4)GlcNAc,1.01
same,glycan array binding signal (z-score),Gal6S(b1-4)Glc,0.007
same,glycan array binding signal (z-score),Gal6S(b1-4)Glc6S,-0.154
same,glycan array binding signal (z-score),Gal6S(b1-4)GlcNAc,0.82
same,glycan array binding signal (z-score),Gal6S(b1-4)GlcNAc6S,0.545
same,glycan array binding signal (z-score),GalNAc(a1-3)Gal,-0.005
same,glycan array binding signal (z-score),GalNAc(a1-3)GalNAc,2.01
same,glycan array binding signal (z-score),[3],-0.587
same,glycan array binding signal (z-score),GalNAc(b1-3)Gal,-0.19
same,glycan array binding signal (z-score),[4],0.053
same,glycan array binding signal (z-score),[5],1.6
same,glycan array binding signal (z-score),[6],-1.02
same,glycan array binding signal (z-score),GalNAc(b1-3)GalNAc,0.524
same,glycan array binding signal (z-score),GalNAc(b1-4)GlcNAc,-0.002
same,glycan array binding signal (z-score),[7],2.87
same,glycan array binding signal (z-score),Glc(a1-4)Glc,-1
same,glycan array binding signal (z-score),Glc(a1-6)Glc(a1-6)Glc,-1.19
same,glycan array binding signal (z-score),Glc(b1-4)Glc,-1.11
same,glycan array binding signal (z-score),Glc(b1-6)Glc,-0.061
same,glycan array binding signal (z-score),GlcA(b1-3)Gal,0.668
same,glycan array binding signal (z-score),GlcA(b1-3)GlcNAc,-0.256
same,glycan array binding signal (z-score),GlcA(b1-6)Gal,-0.711
same,glycan array binding signal (z-score),[8],0.096
same,glycan array binding signal (z-score),[9],0.454
same,glycan array binding signal (z-score),[10],-0.155
same,glycan array binding signal (z-score),[11],0.745
same,glycan array binding signal (z-score),[12],-0.012
same,glycan array binding signal (z-score),[13],2.35
same,glycan array binding signal (z-score),[14],-1.27
same,glycan array binding signal (z-score),[15],-1.72
same,glycan array binding signal (z-score),[16],-0.206
same,glycan array binding signal (z-score),[17],-0.651
same,glycan array binding signal (z-score),[18],0.15
same,glycan array binding signal (z-score),[19],3.8
same,glycan array binding signal (z-score),[20],0.708
same,glycan array binding signal (z-score),GlcNAc(b1-3)Gal,0.243
same,glycan array binding signal (z-score),[21],3.22
same,glycan array binding signal (z-score),GlcNAc(b1-3)Gal(b1-4)Glc,-0.001
same,glycan array binding signal (z-score),[22],-1.38

# Taken from the results shown for reference:
binder,measurement,setting,value
"CREG (Mus musculus), O88668 (protein) MAARAPELARSLLAALLAPALVALLVSPASGRGGRDHGDWDVDRRLPPLPPREDGPRVARFVTHVSDWGSLATISTIKEVRGWPFADIISISDGPPGEGTGEPYMYLSPLQQAVSDLQENPEATLTMSLAQTVYCRNHGFDPQSPLCVHIMMSGTVTKVNKTEEDYARDSLFVRHPEMKHWPSSHNWFFAKLKISRIWVLDYFGGPKVVTPEEYFNVTLQ",glycan array binding signal (z-score),Glc(a1-4)Glc,-1
same,glycan array binding signal (z-score),Glc(a1-6)Glc(a1-6)Glc,-1.19
same,glycan array binding signal (z-score),Glc(b1-4)Glc,-1.11
same,glycan array binding signal (z-score),Glc(b1-6)Glc,-0.061
